{"source": "patent US20230381291A1", "about": "“TUMOR-ASSOCIATED PEPTIDES AND USES THEREOF” (HUMANITAS MIRASOLE S.P.A., priority 2020, published 2023)", "key": {"[1]": {"test_system": "Salmonella-infected 624-38 melanoma cells", "test": "IFN-gamma release by CTL-Vax on Thp1 loaded with conditioned supernatant", "format": "cell-based, human", "conditions": "supernatant of inhibitor-treated Salmonella-infected 624-38 loaded on Thp1, ratio 1:1, 72 hours", "experimental": "(§1) In order to elucidate the Salmonella mechanism of action, the present inventors employed several inhibitors in their in vitro experiments, including: Heptanol (Sigma, 1 mM), hemichannel blocker; proteasome inhibitors: MG132 (Sigma, 20 μM) and Epoxomycin (Sigma, 500 nM); UPR-inhibitor 4μ8c (10 μM).\nHuman acute monocytic leukemia Thp1 cell line was loaded either with antigens at different concentration (20 uM-1.25 uM) or with conditioned medium and used to stimulate CTL-Vax (ratio 1:1). Cells supernatant was collected after 72 hours and IFN-gamma production was measured by ELISA (R&D). IFN-gamma released by CTLs co-cultured with unloaded Thp1 (spontaneous IFN-gamma release) was subtracted from IFN measured upon Ag-stimulation. Specificity of the activation was further assessed using an HLA-I pan blocker as control (10 ug/ml, Clone W6/32)."}, "[2]": {"test_system": "Salmonella-infected 624-38 melanoma cells", "test": "HLA-A*02:01-peptide binding assay on T2 cells (peptide release into supernatant)", "format": "cell-based, human", "conditions": "624-38 cells treated with inhibitor; 4μ8c 10 μM, MG132 20 μM, Epoxomycin 500 nM", "experimental": "as §1\nSingle bacterial colonies were grown overnight and restarted the next day to reach an absorbance at 600 nm of 0.6 corresponding to 0.6×10^9 colony-forming units (CFUs)/ml. Murine and human melanoma cells were incubated with bacteria for 90 minutes, at a cell-to-bacteria ratio of 1:50, in the appropriate medium added with L-Glutamine without antibiotics. Cells were washed with medium and incubated in medium supplemented with gentamicin ([…]) for 18 hours to kill extracellular bacteria. At the end of the incubation cells were harvested and then lysed for protein analysis while supernatant was collected and filtered through 0.22 μm filter eliminate potentially still alive bacteria.\nTo assess peptides enrichment in the supernatant from tumor cell cultures following Salmonella treatment, T2 cells were incubated overnight at 37° C. at 2×10^5 cells/well in serum-free RPMI medium either with 100 μL of supernatant or with Mart-126-35 peptide (1 μM and 10 μM) as a positive control. […]"}}, "note": "For at least one compound, name, drawing or mass did not settle the structure.", "data": [{"compound": "CC[C@H](C)[C@H](NC(=O)[C@H]([C@@H](C)CC)N(C)C(C)=O)C(=O)N[C@H](C(=O)N[C@@H](CC(C)C)C(=O)[C@@]1(C)CO1)[C@@H](C)O", "note": "[Epoxomycin]", "values": [{"measurement": "CTL-Vax activation upon supernatant stimulation (IFN-gamma release)", "setting": "[1]", "value": "affected"}, {"measurement": "peptide release prompted by Salmonella infection (HLA-A*02:01 MFI on T2 cells)", "setting": "[2]", "value": "affected"}]}]}
